Among all 410,000 compounds or so, about 18,000 (4.4%) were called active. Inconclusive results, whose numbers are uncertain, are shown with a selection of clear calls. Rule as the data show it: active = activity change below about -60%; inconclusive = no clear call, values can overlap the other calls; inactive = above about -39%.
Assay: qHTS Assay for inhibitors of the human cytomegalovirus (HCMV)
Details: HFF cells, HCMV-luciferase reporter, 72 h; at 57.5 µM; stronger effect = lower value
In short: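 Compounds were evaluated in HFFs infected with an HCMV luciferase reporter virus (MOI 1 PFU/cell). Luciferase in lysates collected 72 h post infection served as the replication measure.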
% is scaled to controls: 0 for no effect and ±100 for the full control effect.

For `Cc1nc2ncnn2c(N2CCCC(C(=O)Nc3ccccc3Br)C2)c1C` (centres undefined), which activity change, negative = inhibition is on record?
The activity change, negative = inhibition was active: -64.4%.

For `N#CC1=C(SCc2ccc(C#N)cc2)N=C(N)C(c2nc(-c3ccccc3)cs2)C12CCCCC2` (centres undefined), which activity change, negative = inhibition is on record?
Its activity change, negative = inhibition is active: -98.4%.

Which activity change, negative = inhibition does the source give for `COc1ccc(C#Cc2c(-c3ccccc3)n(C)c3ccccc23)cc1` here?
Its activity change, negative = inhibition is inactive: -0.208%.

For `O=C(Nc1ccc(N2CCN(c3ncccc3C(F)(F)F)CC2)nc1)c1cccs1`, which activity change, negative = inhibition is on record?
The activity change, negative = inhibition was active: -86.3%.

For `COc1cc(C(=O)Nc2cccc(S(=O)(=O)NCc3ccco3)c2)cc(OC)c1OC`, which activity change, negative = inhibition is on record?
Its activity change, negative = inhibition is inactive: 71%.

With `COc1ccc2cc3c(N)nn(C(=O)Cc4ccccc4OC)c3nc2c1` as the compound, how does the activity change, negative = inhibition read?
Its activity change, negative = inhibition is inactive: -24.3%.

For `O=C(Nc1ccc(Oc2ccccc2)cc1)c1ccc(F)c(S(=O)(=O)N2CCN(c3cccc(Cl)c3)CC2)c1`, which activity change, negative = inhibition is on record?
Its activity change, negative = inhibition is active: -70.3%.

With `CC(=O)c1cccc(-c2cnc3c(NC=O)cc(-c4ccc(F)cc4)cn23)c1` as the compound, how does the activity change, negative = inhibition read?
Its activity change, negative = inhibition is inactive: 1.38%.

For `Cc1ccc(C)c(NC(=O)COC(=O)c2cccc3c2C(=O)c2ccccc2C3=O)c1`, which activity change, negative = inhibition is on record?
The activity change, negative = inhibition was inconclusive: -40.2%.

With `C(=N\N1CCN(c2ccccc2)CC1)/c1ccccc1` as the compound, how does the activity change, negative = inhibition read?
The activity change, negative = inhibition was inactive: -3.97%.

Which activity change, negative = inhibition does the source give for `O=C(CSc1nc2ncccc2[nH]1)c1ccc2c(c1)OCO2` here?
The activity change, negative = inhibition was inactive: -13.7%.

With `O=C(/C=C/c1ccc[nH]1)c1ccc(F)cc1` as the compound, how does the activity change, negative = inhibition read?
The activity change, negative = inhibition was inconclusive: -40.4%.

For `Cc1cccc(C)c1-n1ncc(C(=O)NCCCN2CCCCC2)c1C1CCN(C(=O)OC(C)(C)C)CC1`, which activity change, negative = inhibition is on record?
The activity change, negative = inhibition was inconclusive: -50.6%.

Which activity change, negative = inhibition does the source give for `COc1cccc(-c2nc(CS(=O)(=O)CC(=O)NCc3ccc4c(c3)OCO4)c(C)o2)c1` here?
Its activity change, negative = inhibition is inconclusive: -58.6%.

Which activity change, negative = inhibition does the source give for `CS(=O)(=O)c1ccc(C(=O)Nc2ccc(N3CCCCC3)cc2)c(Cl)c1` here?
The activity change, negative = inhibition was inactive: -10.9%.

For `Cc1ccc2nc(Cn3cc(C(F)(F)F)ccc3=O)cc(=O)n2c1`, which activity change, negative = inhibition is on record?
Its activity change, negative = inhibition is inconclusive: -40.2%.

Which activity change, negative = inhibition does the source give for `O=C(Cc1cn(-c2ccccc2)nc1-c1ccccc1)N1CCCCC1` here?
Its activity change, negative = inhibition is inconclusive: -59.2%.

Which activity change, negative = inhibition does the source give for `Brc1ccc(-n2cccc2/C=N/n2cnnc2)cc1` here?
The activity change, negative = inhibition was inactive: 34.3%.

For `CCn1nc(C)c(CNC(=O)c2cc(COc3ccccc3SC)on2)c1C`, which activity change, negative = inhibition is on record?
Its activity change, negative = inhibition is active: -64.3%.

For `COc1ccc(-c2nnc(SCC(=O)Nc3ncc(C)s3)n2-c2ccccc2)cc1OC`, which activity change, negative = inhibition is on record?
Its activity change, negative = inhibition is inactive: 105%.

For `COc1ccc(Cl)cc1NC(=O)c1ccc(CN2C(=O)CCn3nc(C)cc32)cc1`, which activity change, negative = inhibition is on record?
The activity change, negative = inhibition was inconclusive: -51.1%.

For `COC(=O)c1c(NC(=O)C2c3ccccc3Oc3ccccc32)sc(C)c1C`, which activity change, negative = inhibition is on record?
The activity change, negative = inhibition was inactive: 9.83%.

Which activity change, negative = inhibition does the source give for `COc1ccc(NC2CCCN(C(=O)C3=NNC(=O)CC3)C2)cc1` (centres undefined) here?
Its activity change, negative = inhibition is inactive: 5.57%.

With `COc1ccccc1/C=C1\SC(=O)N(CC(=O)NCCCn2ccnc2)C1=O` as the compound, how does the activity change, negative = inhibition read?
The activity change, negative = inhibition was inconclusive: -45.6%.

Reference: PubChem BioAssay AID1259415 (National Center for Advancing Translational Sciences (NCATS), 2018)
